From patent publication US20230190680A1, “METHODS AND COMPOSITIONS FOR TREATING AN RNA VIRUS INDUCED DISEASE” (Golden Biotechnology Corporation, priority 2020, published 2023)
For at least one compound, name, drawing or mass did not settle the structure.

Assays:
Nrf-2 = Nrf-2 nuclear translocation study (FIG. 5); details: in comparison with silymarin, at lower concentrations
[1] = Ethanol-induced ALT/AST elevation and oxidative stress (FIG. 6)
TGF-β1 = assay: Anti-fibrosis activity through TGF-β1 inhibition (FIG. 9A)
Col 1 and Col III = assay: Fibrosis-related proteins Col 1 and Col III (FIG. 9B)

**Q.** With `COC1=C(OC)C(O)C(C/C=C(\C)CC/C=C(\C)CCC=C(C)C)C(C)C1=O` (centres unmarked) [Compound 1, 4-hydroxy-2,3-dimethoxy-6-methyl-5-(3,7,11-trimethyldodeca-2,6,10-trienyl)cyclohex-2-enone] as the molecule, how does the Nrf-2 nuclear translocation (Nrf-2) read?
**A.** effective increase

**Q.** What about the “ethanol-induced elevation of ALT and AST” value [1] of the same molecule?
**A.** significantly reduced

**Q.** What about the oxidative stress ([1]; ethanol-induced) of the same molecule?
**A.** suppressed

**Q.** And the “suppression of the expression of TGF-β1” value (TGF-β1)?
**A.** around 64%

**Q.** What about the “fibrosis related proteins (Col 1 and Col III)” value (Col 1 and Col III) of the same molecule?
**A.** anti-fibrosis property
